The assay has as its target NKG2D-His (UniProt P26718). Briefly: ELISA: NKG2D-His coated, MICA/B-ECD titrated, detection 1D5 + anti-hFc-HRP.

The chains behind the UniProt entries cited, without tags or fusion partners. Residues count along the entry.
UniProt P26718, residues 78-216: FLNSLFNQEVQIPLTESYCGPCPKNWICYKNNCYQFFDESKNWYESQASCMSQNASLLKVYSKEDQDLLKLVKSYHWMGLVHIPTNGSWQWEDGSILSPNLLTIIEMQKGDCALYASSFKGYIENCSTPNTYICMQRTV

Results are given in words; binding and its absence hold for the method and conditions named. Some entries that bind do so weakly or less than the wild type. Tags and fused reporters may be left off the sequences shown.

B1: MICA008-ECD-HISAvi (ligand)
chain: EPHSLRYNLTVLSWDGSVQSGFLAEVHLDGQPFLRYDRQKCRAKPQGQWAEDVLGNKTWDRETRDLTGNGKDLRMTLAHIKDQKEGLHSLQEIRVCEIHEDNSTRSSQHFYYDGELFLSQNLETEEWTVPQSSRAQTLAMNVRNFLKEDAMKTKTHYHAMHADCLQELRRYLESGVVLRRTVPPMVNVTRSEASEGNITVTCRASSFYPRNIILTWRQDGVSLSHDTQQWGDVLPDGNGTYQTWVATRICRGEEQRFTCYMEHSGNHSTHPVPSGKVLVLQSHWQHHHHHHGLNDIFEAQKIEWHE
For the molecule B1, the binding result is on record as “binds”.

B2: MICA004-ECD-HISAvi (ligand)
chain: EPHSLRYNLTVLSWDGSVQSGFLAEVHLDGQPFLRYDRQKCRAKPQGQWAEDVLGNKTWDRETRDLTGNGKDLRMTLAHIKDQKEGLHSLQEIRVCEIHEDNSTRSSQHFYYDGELFLSQNVETEEWTVPQSSRAQTLAMNVRNFLKEDAMKTKTHYHAMHADCLQELRRYLESSVVLRRRVPPMVNVTRSEASEGNITVTCRASSFYPRNITLTWRQDGVSLSHDTQQWGDVLPDGNGTYQTWVATRICQGEEQRFTCYMEHSGNHSTHPVPSGKVLVLQSHWQHHHHHHGLNDIFEAQKIEWHE
In the case of B2, the binding entry was “binds”.

These data come from patent publication US20250368742A1.
